Test system: BCG
Assay: microbe, parasite or virus in culture
Format: cell-based
Settings: Mycobacterium tuberculosis variant bovis BCG, read-out: IC50 in MIC assay

CCCCc1oc2ccccc2c1C(=O)c1cc(I)c(OCCN(CC)CC)c(I)c1 [amiodarone, (2-{4-[(2-butyl-1-benzofuran-3-yl)carbonyl]-2,6-diiodophenoxy}ethyl)diethylamine]
IC50: ~9.6 µM
